# Some of the results follow. Further columns of the screen follow, without active or inactive calls. For some of these results: Compounds called inactive in the main read-out are mostly missing here.
# Key:
# PubChem AID 1586 = conditions: yeast two-hybrid polyglutamine protein interaction, reporter readout; measured here: averaged growth delta OD
# [1] = enhancers of SMN2 over SMN1 splicing, cell-based, SMN2/SMN1 luciferase reporters (AID 1598); conditions: SMN2 vs SMN1 luciferase splicing reporter cells, at 10 µM; SMN1 luciferase ratio: measured here: SMN1 luciferase reporter average; SMN2 luciferase ratio: measured here: SMN2 luciferase reporter average, stronger effect = higher value
# [2] = protection against mutant huntingtin cytotoxicity, PC12 cells, LDH release (AID 1610); conditions: PC12 mutant huntingtin toxicity, final LDH at 4 uM, stronger effect = lower value
SMILES,signal change (36 h minus 0 h) (PubChem AID 1586),SMN1 luciferase ratio [1],SMN2 luciferase ratio [1],normalised LDH release [2]
CCC(=O)C(CC(C)N(C)C)(c1ccccc1)c1ccccc1 (centres undefined),0.096,0.84,0.89,0.98
Cc1cccc(C)c1NC1=NCCCS1,0.134,0.91,0.79,0.482
CN1C(=O)CN=C(c2ccccc2F)c2cc([N+](=O)[O-])ccc21,0.636,0.76,0.88,0.932
C[CH2][Hg][S]c1ccccc1C(=O)O,0.0261,0.1,0.16,0.976
Oc1ccc2c3c1OC1[C@@H](O)CC[C@@]4(O)[C@@H](C2)N(CC2CCC2)CC[C@]314 (some centres undefined),0.0847,0.89,0.86,0.899
O=P1(N(CCCl)CCCl)NCCCO1 (centres undefined),0.159,0.92,0.87,1.02
C[C@]12CCC3C(CC[C@@H]4C[C@H](O)CC[C@]34C)C1CCC2=O (some centres undefined),0.0926,0.92,0.93,0.782
CNC(C)(C)Cc1ccccc1,0.133,0.86,0.87,0.586
Oc1ccc(Cl)cc1,0.0326,1,0.94,0.559
CC[C@@]1(O)C(=O)OCc2c1cc1n(c2=O)Cc2cc3ccccc3nc2-1,0.0958,,,0.931
CC(=O)[O][Hg][c]1ccccc1,0.00475,0.08,0.5,0.972
CCC1(CCC(C)C)C(=O)NC(=O)NC1=O,0.328,0.89,0.84,0.893
O=c1ccc2cc(O[C@@H]3O[C@H](CO)[C@@H](O)[C@H](O)[C@H]3O)c(O)cc2o1,0.0413,1,1.03,1.33
CC(N)Cc1ccccc1 (centres undefined),0.558,1.16,1.23,0.78
COc1ccc(C(=O)N2CCCC2=O)cc1,0.178,0.89,0.88,0.908
C[C@]12CCC(=O)C=C1CCC1C2CC[C@@]2(C)C1CC[C@@H]2O (some centres undefined),0.0566,0.85,0.99,1.16
Clc1ccc(COC(Cn2ccnc2)c2ccc(Cl)cc2Cl)c(Cl)c1 (centres undefined),0.00605,0.83,0.86,0.927
CCNC(C)Cc1cccc(C(F)(F)F)c1 (centres undefined),0.203,0.91,1.01,0.831
CN[C@@H](C)[C@@H](O)c1ccccc1,0.114,0.87,0.97,0.544
C=CCC1(C(C)CCC)C(=O)N=C(S)NC1=O (centres undefined),0.281,0.86,1.01,0.516
CCCCCCCCCCCCCCCC[n+]1ccccc1,-0.0068,0.23,0.33,0.845
c1ccc(N=Nc2ccccc2)cc1,0.0923,0.9,0.9,1.19
CC(Cc1ccc(O)cc1)NCC(O)c1cc(O)cc(O)c1 (centres undefined),0.115,0.93,0.92,0.739
NC1C[C@H]1c1ccccc1 (some centres undefined),0.111,0.91,0.97,0.931

# 2 successive compounds from above, quoted:
SMILES,signal change (36 h minus 0 h) (PubChem AID 1586),SMN1 luciferase ratio [1],SMN2 luciferase ratio [1],normalised LDH release [2]
CC[C@@]1(O)C(=O)OCc2c1cc1n(c2=O)Cc2cc3ccccc3nc2-1,0.0958,,,0.931
CC(=O)[O][Hg][c]1ccccc1,0.00475,0.08,0.5,0.972

# Source: PubChem BioAssay
